Test results as given in ChEMBL document CHEMBL5365451, “Discovery of CVN417, a Novel Brain-Penetrant α6-Containing Nicotinic Receptor Antagonist for the Modulation of Motor Dysfunction” (J Med Chem, 2023).
Converted amounts (≈) assume the structure as drawn.

Assay: Aqueous solubility of the compound at pH 7.4
Details: buffer

## COc1ccc(-c2cc(C(=O)N[C@H]3CCCN(C)C3)nn2C)c(Cl)c1
  solubility: 288 µM (≈ 105 µg/mL)
